In the supplement of paper PMC3334620:
The full ranking holds about 33,000 sequences; the median of “E-score (-0.5 to 0.5)” is about -0.0034, and the highest 2% start at about 0.25. Some of the results follow.

The sequences below were run against T1, Yap3 (UniProt P38749) (assay: PBM E-score (8-mer binding enrichment) (E-score (-0.5 to 0.5)); higher = stronger / more preferred TF binding). Settings: protein concentration: 100 nM; construct: GST-full length.
T1 sequence: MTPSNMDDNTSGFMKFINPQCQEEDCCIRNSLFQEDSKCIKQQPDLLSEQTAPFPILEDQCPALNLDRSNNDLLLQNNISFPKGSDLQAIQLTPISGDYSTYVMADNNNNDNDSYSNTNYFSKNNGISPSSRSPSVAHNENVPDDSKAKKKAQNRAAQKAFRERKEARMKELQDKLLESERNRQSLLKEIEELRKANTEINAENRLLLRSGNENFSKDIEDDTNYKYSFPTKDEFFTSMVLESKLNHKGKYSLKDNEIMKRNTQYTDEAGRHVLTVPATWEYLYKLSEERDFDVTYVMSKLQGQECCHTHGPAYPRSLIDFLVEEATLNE
Method in brief: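 Full-length yeast transcription factors or their DNA-binding domains, GST-tagged and expressed with PURExpress, were applied at about 100-200 nM to universal all-10-mer Agilent arrays. These arrays had been made double-stranded by primer extension on fresh or once-stripped slides. Detection used fluorescent anti-GST, normalisation used masliner, and E-scores for ungapped eight-base words pooled with reverse complements came from the Universal PBM Analysis Suite.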

Row | Sequence | PBM E-score
1 | ATCCCACC | 0.0276
2 | CCCGGACG | -0.249
3 | ATCACCAA | 0.112
4 | AGACCGCC | -0.0683
5 | ATATCCCG | 0.0419
6 | TTCCGCAA | 0.00145
7 | AGGCGCAA | 0.116
8 | ATCCGAAG | 0.00945
9 | AGAACGTG | 0.0554
10 | AATAACAT | 0.164
11 | CAGGCGCA | -0.0934
12 | CTTATTGC | 0.0255
13 | AAGTATGT | 0.11
14 | AACTTCGA | 0.152
15 | CTCAGATA | 0.19
16 | AATTTACT | 0.271
17 | ACATCGAC | 0.0194
18 | TAGGGTCA | -0.117
19 | TTGCGCAA | 0.141
20 | TAGGCGGA | 0.121
21 | AGCAGTGC | -0.0942
22 | CGGTGGGC | -0.0629
23 | CAACCTTG | 0.119
24 | GTTTGCTA | 0.104
25 | CCACTATC | 0.012

Row | Sequence | PBM E-score
26 | GTAACATA | 0.0827
27 | GTATGACA | 0.0895
28 | ATGAGAGC | -0.0797
29 | CTTCCGCC | -0.184
30 | ATCATTGA | 0.11
31 | GAACTTAA | 0.0877
32 | TTAACGAA | 0.179
33 | AGGCACGC | -0.119
34 | GAACCCTC | -0.259
35 | GGTTCCGA | -0.0315
36 | CATAGTAC | -0.0332
37 | GTACCCAC | 0.0029
38 | CTTGTAGA | -0.148
39 | CAGTTTCA | -0.0336
40 | CGTCTATC | -0.0275
41 | CGAACTAG | -0.0523
42 | CAGTACTC | -0.151
43 | CACACATA | 0.0181
44 | AACGGTGT | 0.0135
45 | GCAGTGAA | 0.225
46 | CCGTGACC | -0.274
47 | CTGTGCAA | -0.103
48 | AACCCAGA | -0.0116
49 | ACCATTAA | 0.26
50 | ATTCCTTA | 0.138

Laid out differently: results already given.

| Row | Sequence | PBM E-score |
| --- | --- | --- |
| 43 | CACACATA | 0.0181 |
| 44 | AACGGTGT | 0.0135 |
| 45 | GCAGTGAA | 0.225 |

Next part

Row | Sequence | PBM E-score
51 | AACTAATG | 0.23
52 | CCTGAGCG | -0.225
53 | TACGTCAA | 0.139
54 | ATACCAAT | 0.0537
55 | CTTCGACC | -0.0443
56 | AATTTGCC | 0.108
57 | TATTCTCA | 0.142
58 | AAATACGG | 0.0609
59 | CAATGCCG | 0.0489
60 | GATTAGCC | 0.0735
61 | CCACCGTA | -0.0745
62 | CTGACGCA | -0.12
63 | GAAGGCTC | -0.261
64 | CCCTAGTC | -0.171
65 | AGGCTCTC | -0.246
66 | ATCAGCGG | -0.0705
67 | AACTTATA | 0.203
68 | ACGAGTAG | -0.0142
69 | CAGCACGG | -0.109
70 | ATAAGAAC | 0.289
71 | CACATGAA | 0.0106
72 | TCTTCGAA | 0.00967
73 | CTAAGAAC | 0.172
74 | CGAGTGGC | -0.04
75 | ACATATCA | 0.254

Row | Sequence | PBM E-score
76 | CTGGAAAG | -0.0773
77 | CTATGGAA | -0.0751
78 | CTTCCGCA | -0.104
79 | CTTGGTTC | 0.146
80 | AGTTCGTA | 0.174
81 | TGCGTCCA | -0.179
82 | ACGTCGTC | -0.0819
83 | CACAATAC | 0.114
84 | AGCCAAAA | 0.125
85 | ACCTTGGC | -0.109
86 | CAAACATG | 0.0155
87 | CTGCCTCC | -0.149
88 | CTCAGGGC | -0.178
89 | GAAACGCA | 0.0614
90 | TTAACCAA | 0.182
91 | CCTCTCAC | -0.0776
92 | GACTATGA | -0.00301
93 | CGGCATAA | 0.0649
94 | CCCAAGTC | -0.174
95 | CACAGAAA | 0.0474
96 | CGTTGTGA | -0.0712
97 | GTAGGAAC | 0.0852
98 | GAATACCA | 0.0621
99 | AAAGGGGC | -0.159
100 | AAGCCGGG | -0.0754

Row | Sequence | PBM E-score
101 | TCCCTACA | 0.00164
102 | AACGGCAA | 0.107
103 | CGCGTAAA | 0.255
104 | GCGACCAA | 0.174
105 | CTCCCCAG | -0.313
106 | ATGTGTTA | 0.2
107 | TAGGTGAA | 0.0839
108 | TCTCTTCA | 0.0113
109 | AAAGCCTA | 0.0182
110 | AGTCTCGC | 0.0823
111 | CTAGGGCA | -0.311
112 | ACCCTAAG | -0.0271
113 | CATTCATA | 0.223
114 | CTTGGTGC | -0.023
115 | ATGCATAA | 0.117
116 | CCTGCACA | -0.217
117 | CCCGGTAC | -0.209
118 | GAATCCTA | 0.0752
119 | ATGCATCC | -0.0745
120 | AGTCCAAT | 0.0871
121 | TCAACACA | 0.202
122 | CTCAATAA | -0.0772
123 | GTAGTCCA | -0.0936
124 | CTCCTCAC | -0.171
125 | GCTATCGA | 0.0538

Pulled one by one from the entries so far (5):
Row | Sequence | PBM E-score
72 | TCTTCGAA | 0.00967
111 | CTAGGGCA | -0.311
40 | CGTCTATC | -0.0275
56 | AATTTGCC | 0.108
113 | CATTCATA | 0.223

Further records.

Row | Sequence | PBM E-score
126 | AGGGCACG | -0.14
127 | AAAGGGTC | -0.106
128 | TACCGTAA | 0.205
129 | GCGCGGCA | 0.0466
130 | CATCTTTA | 0.0257
131 | AAAATTAT | 0.257
132 | ACATGGAT | 0.0692
133 | AACTGCGT | -0.0561
134 | ATAGTCCC | -0.0825
135 | AACGACAC | 0.121
136 | ATCCGGAA | 0.0743
137 | ACCCTCTA | -0.174
138 | GATGAACA | 0.0368
139 | CTTGTTTC | 0.174
140 | ATCTTCAT | 0.139
141 | CCTCGGAA | 0.105
142 | ACTCATAG | 0.0366
143 | GCTTAGCA | -0.0606
144 | CAAGCGAC | 0.0322
145 | CCTCGTGC | -0.0823
146 | CTAGCCCC | -0.155
147 | ATCAGAGC | 0.149
148 | AACGATAG | 0.116
149 | ATACGTTA | 0.0384
150 | GCACTAGA | -0.0688

Row | Sequence | PBM E-score
151 | CTTTTCAC | 0.171
152 | CTGATTAA | 0.203
153 | AATATGCC | -0.138
154 | CTTGGTAC | 0.172
155 | GGGACTAC | -0.117
156 | CAATGCAC | -0.0637
157 | CGAGCGGA | -0.0731
158 | CAGTAATA | 0.307
159 | ATTTGTTA | 0.166
160 | GAGATTAA | 0.155
161 | ACGGGCAG | 0.0291
162 | CCACAGTA | 0.0572
163 | CATTAATG | 0.212
164 | AGAGGCTC | -0.2
165 | AAATTGCT | 0.0524
166 | CGCAGCAA | -0.143
167 | AAGTACAG | 0.038
168 | CCTGGGTC | -0.242
169 | AGTTGATG | 0.142
170 | ATCTGAAG | -0.0861
171 | AATCGTTC | 0.0879
172 | ATCTTATC | 0.11
